Laboratory results reported in paper PMC6321543, “Cloning, Characterization and Anion Inhibition Studies of a β-Carbonic Anhydrase from the Pathogenic Protozoan Entamoeba histolytica” (Molecules, 2018).

Molecular target: T1, EhiCA (Entamoeba histolytica, UniProt C4LXK3)
T1 construct: gene EHI_073380; His-tag cleaved with thrombin; 21 kDa (21/25 kDa doublet); one Zn per chain; Zn ligands Cys50, His103, Cys106, dyad Asp52-Arg54; dimer and trimer seen on SDS-PAGE
T1 sequence (C4LXK3 1-188): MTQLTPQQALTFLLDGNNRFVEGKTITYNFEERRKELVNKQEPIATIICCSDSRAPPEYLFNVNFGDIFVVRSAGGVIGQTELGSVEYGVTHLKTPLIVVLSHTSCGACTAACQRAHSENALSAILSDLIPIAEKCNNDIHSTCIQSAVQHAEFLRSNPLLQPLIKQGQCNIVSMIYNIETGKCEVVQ
Format: biochemical
Details: read-out: KI (Acetazolamide)

CC(=O)Nc1nnc(S(N)(=O)=O)s1 [acetazolamide, 5-acetamido-1,3,4-thiadiazole-2-sulfonamide]
Ki: 509 nM
